Results are given in words; binding and its absence hold for the method and conditions named. Binding seen in cells or lysates may run through a third protein. Sequences can lack the tags named with a protein.
Molecular target: OEP7-nYFP (Outer Envelope Protein 7 fused to the N-terminal half of YFP) (Arabidopsis thaliana) (UniProt Q9SVC4)
Experiment: split reporter; BiFC with split Venus YFP (cYFP and nYFP fusions), transient expression in tobacco leaf epidermal cells, confocal imaging; used by the authors as a reporter of membrane proximity

The chains behind the UniProt entries cited, without tags or fusion partners.
UniProt Q9SVC4: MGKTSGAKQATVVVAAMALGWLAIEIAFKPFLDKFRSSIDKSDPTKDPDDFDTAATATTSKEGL

binding: no binding
B1: cYFP-VAP27-1 (full-length VAP27-1 fused to the C-terminal half of YFP) (protein, UniProt Q8VZ95 1-256)
chain: MSNIDLIGMSNRDLIGMSNSELLTVEPLDLQFPFELKKQISCSLYLTNKTDNNVAFKVKTTNPKKYCVRPNTGVVLPRSTCEVLVTMQAQKEAPSDMQCKDKFLLQGVIASPGVTAKEVTPEMFSKEAGHRVEETKLRVTYVAPPRPPSPVHEGSEEGSSPRASVSDNGHGSEFSFERFIVDNKAGHQENTSEARALITKLTEEKQSAIQLNNRLQRELDQLRRESKKSQSGGIPFMYVLLVGLIGLILGYIMKRT

— publication PMC11255254, “ER-associated VAP27-1 and VAP27-3 proteins functionally link the lipid-binding ORP2A at the ER-chloroplast contact sites” (Nature Communications, 2024)
